Our source for the binding values is article PMC10449177.

Chains of the proteins cited; added tags and fusions are not shown.
UniProt P25106: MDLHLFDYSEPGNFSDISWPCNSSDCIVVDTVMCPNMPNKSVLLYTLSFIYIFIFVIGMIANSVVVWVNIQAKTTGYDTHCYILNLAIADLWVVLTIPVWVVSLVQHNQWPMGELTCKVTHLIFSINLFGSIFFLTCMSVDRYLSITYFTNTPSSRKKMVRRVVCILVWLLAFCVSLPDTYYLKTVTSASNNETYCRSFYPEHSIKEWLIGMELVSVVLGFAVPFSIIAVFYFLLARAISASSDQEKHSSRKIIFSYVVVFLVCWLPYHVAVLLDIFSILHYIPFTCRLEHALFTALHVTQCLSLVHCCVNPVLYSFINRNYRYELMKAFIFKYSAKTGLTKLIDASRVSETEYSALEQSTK

The assay concerns the target CXCR7 (human (endogenous in H1 and H9 human ESCs)) (UniProt P25106). Description: co-IP; endogenous proteins in human ESC lysate (IP lysis buffer); 2 ug antibody (MIF antibody, or CXCR7 antibody for the reverse IP) with protein A/G beads overnight at 4°C; washed three times; Western blot; IgG as negative control.

These are yes or no findings as the source states them, for the method shown. Binding seen in cells or lysates may run through a third protein. Some entries that bind do so weakly or less than the wild type.

B1: Macrophage migration inhibitory factor (protein, UniProt P14174 1-115)
chain: MPMFIVNTNVPRASVPDGFLSELTQQLAQATGKPPQYIAVHVVPDQLMAFGGSSEPCALCSLHSIGKIGGAQNRSYSKLLCGLLAERLRISPDRVYINYYDMNAANVGWNNSTFA
Regarding B1, the binding entry is on record as “binds”.
